# doi:10.1101/251603
# Protein sequences, listed by entry. Tags and fused reporters are not part of them. Lines headed by an entry give the natural chain unless they say otherwise; changes in a name come on top.
# UniProt P18616: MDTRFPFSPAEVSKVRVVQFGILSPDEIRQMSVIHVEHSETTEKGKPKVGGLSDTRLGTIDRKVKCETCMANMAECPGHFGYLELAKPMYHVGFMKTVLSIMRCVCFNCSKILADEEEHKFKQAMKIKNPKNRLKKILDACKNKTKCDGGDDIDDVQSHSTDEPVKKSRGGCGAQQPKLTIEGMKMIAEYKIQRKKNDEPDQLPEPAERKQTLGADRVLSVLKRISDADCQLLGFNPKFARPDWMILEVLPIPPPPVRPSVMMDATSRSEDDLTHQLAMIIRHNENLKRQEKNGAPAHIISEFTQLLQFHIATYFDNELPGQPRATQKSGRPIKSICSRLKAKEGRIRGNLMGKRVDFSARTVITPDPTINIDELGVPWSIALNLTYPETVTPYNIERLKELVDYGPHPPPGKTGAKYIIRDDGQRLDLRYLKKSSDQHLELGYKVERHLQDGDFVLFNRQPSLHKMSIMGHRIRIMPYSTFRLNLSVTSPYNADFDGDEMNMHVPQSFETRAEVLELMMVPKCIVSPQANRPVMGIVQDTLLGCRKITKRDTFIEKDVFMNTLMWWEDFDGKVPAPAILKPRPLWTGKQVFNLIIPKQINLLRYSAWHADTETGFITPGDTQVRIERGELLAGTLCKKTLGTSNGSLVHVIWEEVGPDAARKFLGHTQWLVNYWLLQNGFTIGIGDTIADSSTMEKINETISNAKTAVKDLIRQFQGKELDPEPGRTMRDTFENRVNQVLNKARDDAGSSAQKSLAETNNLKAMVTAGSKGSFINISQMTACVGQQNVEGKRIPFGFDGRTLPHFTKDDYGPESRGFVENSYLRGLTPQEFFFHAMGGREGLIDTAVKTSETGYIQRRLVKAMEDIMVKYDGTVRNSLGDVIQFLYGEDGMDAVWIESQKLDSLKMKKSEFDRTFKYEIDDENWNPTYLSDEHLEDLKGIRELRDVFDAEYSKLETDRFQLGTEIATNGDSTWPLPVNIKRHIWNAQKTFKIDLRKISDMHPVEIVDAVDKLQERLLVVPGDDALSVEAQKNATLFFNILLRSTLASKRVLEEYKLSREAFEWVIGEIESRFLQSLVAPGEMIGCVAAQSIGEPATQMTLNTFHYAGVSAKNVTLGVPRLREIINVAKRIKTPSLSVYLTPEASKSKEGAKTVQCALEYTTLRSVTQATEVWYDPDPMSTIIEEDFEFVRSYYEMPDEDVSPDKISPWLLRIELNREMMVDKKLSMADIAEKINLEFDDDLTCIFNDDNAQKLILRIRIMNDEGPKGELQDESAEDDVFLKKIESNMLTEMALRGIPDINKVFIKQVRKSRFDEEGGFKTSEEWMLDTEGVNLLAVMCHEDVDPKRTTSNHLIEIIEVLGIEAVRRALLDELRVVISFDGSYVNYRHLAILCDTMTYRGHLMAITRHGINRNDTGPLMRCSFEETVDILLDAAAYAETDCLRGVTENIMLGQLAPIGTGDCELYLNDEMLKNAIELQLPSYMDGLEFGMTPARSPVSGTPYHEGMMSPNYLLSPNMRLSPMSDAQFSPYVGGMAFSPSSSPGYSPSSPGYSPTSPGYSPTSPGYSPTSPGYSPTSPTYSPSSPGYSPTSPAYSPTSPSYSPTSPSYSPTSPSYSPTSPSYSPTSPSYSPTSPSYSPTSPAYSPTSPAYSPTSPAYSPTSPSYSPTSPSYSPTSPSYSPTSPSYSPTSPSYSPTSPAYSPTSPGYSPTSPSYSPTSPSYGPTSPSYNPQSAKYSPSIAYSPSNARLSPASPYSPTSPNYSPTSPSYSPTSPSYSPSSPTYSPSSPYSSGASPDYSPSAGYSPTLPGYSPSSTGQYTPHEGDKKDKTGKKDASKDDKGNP
# No constants are given. Whether binding was seen depends on the method and setting. In cells and extracts the contact can be indirect. Binding can be weak; no strength is given. Sequences can lack the tags named with a protein.
# B1: ELP4-nLUC (protein, UniProt Q9C778 1-355)
# chain: MAAPNVRSSSSFSRNISVVSSPQIPGLKSGPNGTAFISSGIRDLDRILGGGYPLGSLVMVMEDPEAPHHMDLLRTYMSQGLVNNQPLLYASPSKDPKGFLGTLPHPASSKEDKPTAPDPDQGESLRIAWQYRKYLENQKNAIDDYSNDFDMRKPLERQFLSGRPIDCVSLLDSSDLSIAQDHCATFLSKFPRNSSNIASIGRIAIQSFCSPLCEYSEKESDMLSFIRLLKSMLMVSNAVAIVTFPPSLLSPSSSKRLQHMADTLLSIKAIPDGDKELEKLLTGYKDINGFLNIHKVARINTQVPVILEAKTFSMSLKKRRFLALECLNQAPVDGSSGTSYGTSGSCSSKSGALDF
# Molecular target: cLUC-CTD (Arabidopsis thaliana) (UniProt P18616)
# Assay: split reporter
binder,measurement,value
B1,binding,binds
